In US20200138825A1, “METHOD OF TREATING MALIGNANT RHABDOID TUMOR OF THE OVARY (MRTO)/SMALL CELL CANCER OF THE OVARY OF THE HYPERCALCEMIC TYPE(SCCOHT) WITH AN EZH2 INHIBITOR” (Epizyme, Inc., priority 2015, published 2020):

Test system: ovarian cell lines
Assay: cells

Q: For `CCN(c1cc(-c2ccc(CN3CCOCC3)cc2)cc(C(=O)NCc2c(C)cc(C)[nH]c2=O)c1C)C1CCOCC1` [tazemetostat], which IC50 is on record?
A: ≥ 73 nM
